Measured values as given in patent US9339033B2, “1-aryl-5-alkyl pyrazole derivative compounds, processes of making and methods of using thereof” (MERIAL, INC., priority 2007, dated 2016).
Some results were stated once for a whole list of compounds, not compound by compound. For some of these results: At least one structure is not confirmed: it was looked up by name or label, or the drawing left a doubt.

Tests used:
[1] = system: green peach aphid (Myzus persicae); assay: Method J: Myzus persicae test (spray application); format: in vivo; settings: concentration of 500 g/ha; spray on infected Chinese cabbage leaf-disks
From the text: Method J: Myzus persicae Test (Spray Application)
100% means that all aphids have been killed; 0% means that none of the aphids have been killed.

[2] = system: western flower thrips (Frankliniella occidentalis); assay: Method L: Frankliniella occidentalis test (spray application); format: in vivo; settings: concentration of 500 g/ha; spray on French bean leaf-disks
From the text: Method L: Frankliniella occidentalis Test (Spray Application)
French bean (Phaseolus vulgaris) leaf-disks are sprayed with a test solution containing the desired concentration of the active ingredient. Once dry, the leaf disks are infested with western flower thrips (Frankliniella occidentalis).
100% means that all the thrips have been killed; 0% means that none of the thrips have been killed.

[3] = system: Rhipicephalus sanguineus (Brown Dog Tick); assay: Method A: contact activity against ticks; format: in vivo; settings: 48 hour assessment; for LD50: Rhipicephalus sanguineus; for control of Rhipicephalus sanguineus: test concentration of 25 ppm or less, treated vial and filter papers
From the text: • Method of Use Examples Method A: Screening Method to Test Contact Activity of Compounds Against Ticks
A solution of the test compound was used to coat the inner wall of glass vials and to treat two filter papers. Once dried, one filter paper was placed in the cap of the vial and the other in the bottom of the vial. Each treated vial was infested with 10 adult Rhipicephalus sanguineus (Brown Dog Tick). Contact of the ticks with residues was induced by holding the vials in a controlled environment (24° C., 90-95% relative humidity) and assessment was performed at 24, 48 hours after application in comparison with untreated controls.

[4] = system: two spotted spidermite (Tetranychus urticae); assay: Method K: Tetranychus urticae test; OP-resistant (spray application); settings: concentration of 100 g/ha, spray on infested French beans
Protocol: Method K: Tetranychus urticae Test; OP-Resistant (Spray Application)
French beans (Phaseolus vulgaris) which are heavily infested with all stages of the two spotted spidermite (Tetranychus urticae), are sprayed with a preparation of the active ingredient at the desired concentration.
After the specified period of time, mortality in % is determined. 100% means that all spider mites have been killed and 0% means that none of the spider mites have been killed.

[5] = system: Ctenocephalides felis; assay: Method B: contact activity against fleas; format: in vivo; settings: 72 hours assessment; for LD50: contact, Ctenocephalides felis; for control (Ctenocephalides felis, contact): test concentration of 25 ppm or less
Protocol: Method B: Screening Method to Test Contact Activity of Compounds Against Fleas
A solution of the test compound was dispensed, using a pipette, onto filter paper placed into a glass vial. The filter paper was allowed to dry before infesting each vial with 10 adult Ctenocephalides felis. The treated Ctenocephalides felis were held in a controlled environment (24° C., 90-95% relative humidity) and assessment was performed at 24, 48 and 72 hours after application in comparison with untreated controls.

[6] = system: Ctenocephalides felis; assay: Method C: activity against fleas following ingestion; format: in vivo; settings: for LD50: 72 hour assessment, ingestion of treated bovine blood, Ctenocephalides felis; for control (Ctenocephalides felis, ingestion): 72 hours after application, test concentration of 2.5 ppm or less in bovine blood

| Compound | activity (mortality in %), Myzus persicae [1] [%] | activity (mortality in %), Frankliniella occidentalis [2] [%] | LD50 [3] | control of Rhipicephalus sanguineus [3] | activity (mortality in %), Tetranychus urticae [4] [%] | LD50 [5] | control (Ctenocephalides felis, contact) [5] | LD50 [6] | control (Ctenocephalides felis, ingestion) [6] |
| --- | --- | --- | --- | --- | --- | --- | --- | --- | --- |
| 3-Cyano-1-(2,6-dichloro-4-trifluoromethylphenyl)-5-ethyl-4-trifluoromethylthiopyrazole [Compound 2] | ≥ 80 | ≥ 80 |  |  |  |  |  |  |  |
| 4-Chlorodifluoromethylsulfinyl-1-(2-chloro-6-fluoro-4-trifluoromethylphenyl)-3-cyano-5-fluoromethylpyrazole [Compound 38] | ≥ 80 | ≥ 80 | below 6 ppm | at least 80% | ≥ 80 |  |  |  |  |
| 4-Chlorodifluoromethylsulfonyl-1-(2-chloro-6-fluoro-4-trifluoromethylphenyl)-3-cyano-5-fluoromethylpyrazole [Compound 40] | ≥ 80 | ≥ 80 | below 6 ppm | at least 80% | ≥ 80 | below 12 ppm | at least 80% |  |  |
| 4-Chlorodifluoromethylthio-1-(2-chloro-6-fluoro-4-trifluoromethylphenyl)-3-cyano-5-fluoromethylpyrazole [Compound 35] | ≥ 80 | ≥ 80 | below 6 ppm | at least 80% |  | below 12 ppm | at least 80% |  |  |
| Cc1c(SC(F)(F)F)c(C#N)nn1-c1c(Cl)cc(C(F)(F)F)cc1Cl [Compound 1, 3-Cyano-1-(2,6-dichloro-4-trifluoromethylphenyl)-5-methyl-4-trifluoromethylthiopyrazole] |  |  |  |  |  | below 12 ppm | at least 80% | below 1.5 ppm | at least 80% |
| Cc1c([S+]([O-])C(F)(F)F)c(C#N)nn1-c1c(Cl)cc(C(F)(F)F)cc1Cl (stereo not shown) [Compound 5, 3-cyano-1-(2,6-dichloro-4-trifluoromethylphenyl)-5-methyl-4-trifluoromethylsulfinylpyrazole] |  |  |  |  |  |  |  | below 1.5 ppm | at least 80% |
| Cc1c(SC(F)(F)F)c(C#N)nn1-c1c(F)cc(C(F)(F)F)cc1F [Compound 6, 3-cyano-1-(2,6-difluoro-4-trifluoromethylphenyl)-5-methyl-4-trifluoromethylthiopyrazole] |  |  |  |  |  | below 12 ppm | at least 80% | below 1.5 ppm | at least 80% |
| Cc1c(SC(F)(F)F)c(C#N)nn1-c1c(F)cc(C(F)(F)F)cc1Cl [Compound 7, 1-(2-Chloro-6-fluoro-4-trifluoromethylphenyl)-3-cyano-5-methyl-4-trifluoromethylthiopyrazole] |  |  |  |  |  | below 12 ppm | at least 80% | below 1.5 ppm | at least 80% |
| Cc1c([S+]([O-])C(F)(F)F)c(C#N)nn1-c1c(F)cc(C(F)(F)F)cc1Cl (stereo not shown) [Compound 9, 1-(2-Chloro-6-fluoro-4-trifluoromethylphenyl)-3-cyano-5-methyl-4-trifluoromethylsulfinylpyrazole] |  |  |  |  |  |  |  | below 1.5 ppm | at least 80% |
| Cc1c(SC(F)(F)Cl)c(C#N)nn1-c1c(F)cc(C(F)(F)F)cc1Cl [Compound 36, 4-Chlorodifluoromethylthio-1-(2-chloro-6-fluoro-4-trifluoromethylphenyl)-3-cyano-5-methylpyrazole] | ≥ 80 | ≥ 80 | below 6 ppm | at least 80% |  | below 12 ppm | at least 80% |  |  |
| Cc1c([S+]([O-])C(F)(F)Cl)c(C#N)nn1-c1c(F)cc(C(F)(F)F)cc1Cl (stereo not shown) [Compound 37, 4-Chlorodifluoromethylsulfinyl-1-(2-chloro-6-fluoro-4-trifluoromethylphenyl)-3-cyano-5-methylpyrazole] | ≥ 80 |  | below 6 ppm | at least 80% | ≥ 80 | below 12 ppm | at least 80% |  |  |
| Cc1c(S(=O)(=O)C(F)(F)Cl)c(C#N)nn1-c1c(F)cc(C(F)(F)F)cc1Cl [Compound 39, 4-Chlorodifluoromethylsulfonyl-1-(2-chloro-6-fluoro-4-trifluoromethylphenyl)-3-cyano-5-methylpyrazole] | ≥ 80 | ≥ 80 | below 6 ppm | at least 80% | ≥ 80 | below 12 ppm | at least 80% |  |  |
